This passage reports binding results from paper PMC12859064.

Results are given in words; binding and its absence hold for the method and conditions named. For some of these results: Binding calls can cover weak binding; strength is not graded here. Where a sequence is shown, tags or fusion partners need not be part of it. For some of these results: Binding seen in cells or lysates may run through a third protein.

One assay concerns the target T1, GST-TRIM15 (human) (UniProt Q9C019).
T1 sequence: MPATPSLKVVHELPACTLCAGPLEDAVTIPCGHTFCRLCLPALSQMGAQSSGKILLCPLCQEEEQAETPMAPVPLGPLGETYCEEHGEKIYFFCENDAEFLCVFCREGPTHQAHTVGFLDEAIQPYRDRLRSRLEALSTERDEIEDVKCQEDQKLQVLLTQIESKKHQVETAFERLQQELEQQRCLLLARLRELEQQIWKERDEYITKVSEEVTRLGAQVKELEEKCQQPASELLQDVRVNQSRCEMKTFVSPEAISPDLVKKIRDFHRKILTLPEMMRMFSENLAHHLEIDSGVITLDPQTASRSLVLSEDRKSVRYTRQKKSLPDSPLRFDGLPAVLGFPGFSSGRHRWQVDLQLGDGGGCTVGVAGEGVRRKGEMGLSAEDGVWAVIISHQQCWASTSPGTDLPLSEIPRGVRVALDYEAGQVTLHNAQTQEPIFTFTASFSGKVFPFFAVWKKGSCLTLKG
Description: pull-down; GST or GST-fused TRIM15 proteins from bacteria immobilised on Glutathione Sepharose 4B; Flag-Axin1 purified from HEK293T; 50 mM Tris-HCl pH 7.4, 150 mM NaCl, 0.5% Triton, 10% glycerol, 1 mM DTT, 4 °C, 4 h or overnight; both purified.

The target in assay [1] is T2, GST-TRIM15 ΔCC (126-229) (human) (UniProt Q9C019).
T2 sequence: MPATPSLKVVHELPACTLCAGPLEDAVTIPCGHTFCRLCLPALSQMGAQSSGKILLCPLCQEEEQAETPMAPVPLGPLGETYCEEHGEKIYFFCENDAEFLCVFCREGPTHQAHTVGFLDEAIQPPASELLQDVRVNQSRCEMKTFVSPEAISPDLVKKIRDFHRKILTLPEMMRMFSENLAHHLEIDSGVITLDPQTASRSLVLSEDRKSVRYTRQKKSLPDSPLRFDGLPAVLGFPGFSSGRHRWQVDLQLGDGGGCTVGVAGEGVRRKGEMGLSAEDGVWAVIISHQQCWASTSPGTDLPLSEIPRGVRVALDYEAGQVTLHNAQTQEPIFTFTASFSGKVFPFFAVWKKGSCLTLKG
Described as above.

The target in assay [2] is T3, GST-TRIM15 ΔRING (1-61) (human) (UniProt Q9C019).
T3 sequence: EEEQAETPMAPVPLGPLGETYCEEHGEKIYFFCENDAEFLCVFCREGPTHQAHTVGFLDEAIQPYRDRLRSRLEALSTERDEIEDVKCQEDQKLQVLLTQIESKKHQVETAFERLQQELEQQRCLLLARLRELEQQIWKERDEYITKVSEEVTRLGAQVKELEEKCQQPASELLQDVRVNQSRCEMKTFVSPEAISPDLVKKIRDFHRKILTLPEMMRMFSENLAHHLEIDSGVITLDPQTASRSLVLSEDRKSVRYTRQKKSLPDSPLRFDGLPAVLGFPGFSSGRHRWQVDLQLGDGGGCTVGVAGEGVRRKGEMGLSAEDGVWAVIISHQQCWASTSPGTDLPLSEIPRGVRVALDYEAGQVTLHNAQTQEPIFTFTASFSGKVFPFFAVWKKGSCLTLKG
The assay is described as above.

Another assay deals with GFP-Axin1 (mouse). Nature of the assay: pull-down; GFP-fused Axin1 or its fragments immobilised on anti-GFP magnetic beads; Flag-TRIM15 proteins purified from HEK293T; binding buffer as for the GST pull-down; both purified.
Assay [3] has as its target exogenous Axin1 (tag not given) (mouse). Description: co-IP; HEK293T cells transfected with the indicated plasmids; lysis buffer 50 mM Tris-Cl pH 7.4, 150 mM NaCl, 0.5% Triton, 10% glycerol; anti-Flag beads where told; Western blot; in Fig. 8d cells treated with P9715 (50 and 100 μM, 36 h).
In assay [4] the target is GFP-fused Axin1-D (507-749) (mouse). Nature of the assay: pull-down; GFP-fused Axin1 or its fragments immobilised on anti-GFP magnetic beads; Flag-TRIM15 proteins purified from HEK293T; binding buffer as for the GST pull-down; both purified.
The next assay concerns the target Flag-Axin1 (mouse). Description: co-IP; HEK293T cells transfected with the indicated plasmids; lysis buffer 50 mM Tris-Cl pH 7.4, 150 mM NaCl, 0.5% Triton, 10% glycerol; anti-Flag beads where told; Western blot; in Fig. 8d cells treated with P9715 (50 and 100 μM, 36 h).

As for Flag-Axin1 (mouse), the binding result was “binds” with GST-TRIM15 (human), “no binding” in assay [1] and “binds” in assay [2].

B1: Flag-TRIM15 ΔCC (protein, UniProt Q9C019)
chain: T2 sequence
Turning to B1, the binding result with GFP-Axin1 (mouse) was “no binding”.

B2: Flag-TRIM15 ΔRBC (domain or fragment, UniProt Q9C019 230-465)
chain: PASELLQDVRVNQSRCEMKTFVSPEAISPDLVKKIRDFHRKILTLPEMMRMFSENLAHHLEIDSGVITLDPQTASRSLVLSEDRKSVRYTRQKKSLPDSPLRFDGLPAVLGFPGFSSGRHRWQVDLQLGDGGGCTVGVAGEGVRRKGEMGLSAEDGVWAVIISHQQCWASTSPGTDLPLSEIPRGVRVALDYEAGQVTLHNAQTQEPIFTFTASFSGKVFPFFAVWKKGSCLTLKG
Take B2: in the assay with GFP-Axin1 (mouse), the binding entry was “no binding”.

B3: Flag-TRIM15 ΔRING (domain or fragment, UniProt Q9C019 62-465)
chain: T3 sequence
B3: the binding entry (in assay [3]; in the assay with GFP-Axin1 (mouse)) was “binds” throughout.

B4: Flag-TRIM15 (protein, UniProt Q9C019 1-465)
chain: T1 sequence
Regarding B4, the binding entry (in assay [4]; with GFP-Axin1 (mouse)) was “binds” each time.

B5: TRIM15-YFP (protein, UniProt Q9C019 1-465)
chain: T1 sequence
Consider B5, for which the binding entry with Flag-Axin1 (mouse) is “binds”.
